From patent publication US20250346934A1
Results are given in words; binding and its absence hold for the method and conditions named. Some results given as binding are weak or reduced against the parent protein; the word gives no strength.

Sequences of proteins named here, by UniProt entry; tags and fusion partners are left off. A change or cut given only in a name is not applied to a line headed by its entry.
UniProt A8A750: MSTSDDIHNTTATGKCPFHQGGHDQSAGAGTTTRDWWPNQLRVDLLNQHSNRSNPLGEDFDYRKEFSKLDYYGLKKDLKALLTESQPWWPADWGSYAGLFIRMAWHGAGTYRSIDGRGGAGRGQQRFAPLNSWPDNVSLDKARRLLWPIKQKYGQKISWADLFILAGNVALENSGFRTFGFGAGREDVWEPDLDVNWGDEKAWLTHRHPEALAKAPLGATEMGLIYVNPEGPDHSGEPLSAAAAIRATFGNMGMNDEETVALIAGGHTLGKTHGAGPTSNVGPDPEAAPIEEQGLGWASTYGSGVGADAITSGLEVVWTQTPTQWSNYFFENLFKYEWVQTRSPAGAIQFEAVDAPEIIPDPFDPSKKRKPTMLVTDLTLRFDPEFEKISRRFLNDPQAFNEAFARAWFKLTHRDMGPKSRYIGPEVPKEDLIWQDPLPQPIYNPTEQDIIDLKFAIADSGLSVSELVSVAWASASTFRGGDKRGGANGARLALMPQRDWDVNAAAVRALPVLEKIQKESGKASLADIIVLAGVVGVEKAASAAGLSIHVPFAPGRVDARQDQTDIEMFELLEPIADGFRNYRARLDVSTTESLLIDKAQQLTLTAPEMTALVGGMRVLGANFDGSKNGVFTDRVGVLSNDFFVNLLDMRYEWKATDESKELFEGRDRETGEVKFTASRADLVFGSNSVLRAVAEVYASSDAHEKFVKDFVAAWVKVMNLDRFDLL

Key:
Experiment in all cases: non-reducing SDS-PAGE and dynamic light scattering of a 1:2 molar mixture
[1] = biological target: KatG-RIDD (GGGGS)6 (Escherichia coli (W3110)) (UniProt A8A750)
[2] = biological target: KatG-RIDD (GGGGS)4 (Escherichia coli (W3110)) (UniProt A8A750)
[3] = biological target: KatG-RIDD (GGGGS)5 (Escherichia coli (W3110)) (UniProt A8A750)

binding [1]: binds | binding [2]: binds | binding [3]: binds
B1: LGOX-RIAD (GGGGS)4 (enzyme)
chain: ASGDSRGADFDRCLAVARALLVLDSDDRPLVPRYQSVLQKGLPAQRRTRPKNVLVIGAGPAGLVAAWLLKRAGHRVTVLEANGNRAGGRVKTFRSGGHERAEQPFADPRQYAEAGAMRIPGSHPLVMELIDQFELKKRRFHYVDVDSEGRPANRTWIHVNGIRVRRADYARAPRRVNRSFGVPRAHWDTPAAAILRSVLDPVRDEFSRVGRDGKRVDKPLPERLQGWARVVQRFGDWSMFRFLTEHAGLDERTIDLIGTLENLTSRLPLSFIHSFIGSSLISPDTPFYELEGGTAVLPDALLERVRKDVRFDRRVTRIQYHHPDRPSPDVEQVRSKGPHVWVDTVSEGRDGPVVREQFTADVAVVTVPFSGLRHVQIAPPLSYGKRRAVCELHYDSATKVLLEFSRRWWEFDEADWKRELRAVDPGLYDAYRTGRAAADGSLLGAHPSVPAGHITAGQRTHYAANRAVARDQPEAVDVVGGGSVSDNANRFMFHPSHPVPGSAGGVVLASYSWADDALRWDSLDDEARYPHALCGLQQVYGQRIEVFYTGAGRTQSWLRDPYAYGEASVLLPGQHTELLSAIPVAEGPLHFAGDHTSVKPAWIEGAVESAVRAALEIHTAGGGGSGGGGSGGGGSGGGGSLEQYANQLADQIIKEATEGC
